We go through 2 substances from publication PMC8884900.

Chains of the proteins cited; added tags and fusions are not shown. Lines headed by an entry give the natural chain unless they say otherwise; changes in a name come on top. A line that says so, or that is headed by a name, gives the form on record, which may keep a tag or linker. Residues count along the entry.
UniProt Q9UHP3: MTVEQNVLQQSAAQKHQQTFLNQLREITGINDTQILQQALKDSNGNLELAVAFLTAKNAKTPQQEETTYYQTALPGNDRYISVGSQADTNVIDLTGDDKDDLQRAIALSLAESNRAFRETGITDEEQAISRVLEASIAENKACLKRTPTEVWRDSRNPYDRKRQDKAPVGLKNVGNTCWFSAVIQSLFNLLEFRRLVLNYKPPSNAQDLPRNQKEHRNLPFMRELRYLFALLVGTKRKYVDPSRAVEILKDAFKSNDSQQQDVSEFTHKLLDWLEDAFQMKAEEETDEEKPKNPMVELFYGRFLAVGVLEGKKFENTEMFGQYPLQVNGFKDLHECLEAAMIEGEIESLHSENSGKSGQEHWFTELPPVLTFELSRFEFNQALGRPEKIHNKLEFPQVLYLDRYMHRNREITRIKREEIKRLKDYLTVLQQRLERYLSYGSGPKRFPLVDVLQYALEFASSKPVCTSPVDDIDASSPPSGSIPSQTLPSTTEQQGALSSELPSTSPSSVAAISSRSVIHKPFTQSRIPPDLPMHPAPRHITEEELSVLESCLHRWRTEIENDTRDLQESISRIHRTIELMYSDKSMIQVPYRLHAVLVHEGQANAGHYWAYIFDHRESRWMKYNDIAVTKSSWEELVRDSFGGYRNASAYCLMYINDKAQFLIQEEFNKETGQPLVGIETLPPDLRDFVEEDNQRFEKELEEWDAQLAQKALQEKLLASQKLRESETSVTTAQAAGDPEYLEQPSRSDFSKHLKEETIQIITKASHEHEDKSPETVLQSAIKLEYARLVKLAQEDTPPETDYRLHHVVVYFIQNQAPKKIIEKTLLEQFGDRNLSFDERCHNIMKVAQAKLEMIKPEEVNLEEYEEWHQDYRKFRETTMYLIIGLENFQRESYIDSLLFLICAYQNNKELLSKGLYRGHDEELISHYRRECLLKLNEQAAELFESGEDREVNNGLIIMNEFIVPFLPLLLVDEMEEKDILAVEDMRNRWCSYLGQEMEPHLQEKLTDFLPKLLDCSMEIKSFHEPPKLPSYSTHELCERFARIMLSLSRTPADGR
His-tagged USP25a catalytic domain: residues 157-706 of Q9UHP3
UniProt P05067, residues 18-770: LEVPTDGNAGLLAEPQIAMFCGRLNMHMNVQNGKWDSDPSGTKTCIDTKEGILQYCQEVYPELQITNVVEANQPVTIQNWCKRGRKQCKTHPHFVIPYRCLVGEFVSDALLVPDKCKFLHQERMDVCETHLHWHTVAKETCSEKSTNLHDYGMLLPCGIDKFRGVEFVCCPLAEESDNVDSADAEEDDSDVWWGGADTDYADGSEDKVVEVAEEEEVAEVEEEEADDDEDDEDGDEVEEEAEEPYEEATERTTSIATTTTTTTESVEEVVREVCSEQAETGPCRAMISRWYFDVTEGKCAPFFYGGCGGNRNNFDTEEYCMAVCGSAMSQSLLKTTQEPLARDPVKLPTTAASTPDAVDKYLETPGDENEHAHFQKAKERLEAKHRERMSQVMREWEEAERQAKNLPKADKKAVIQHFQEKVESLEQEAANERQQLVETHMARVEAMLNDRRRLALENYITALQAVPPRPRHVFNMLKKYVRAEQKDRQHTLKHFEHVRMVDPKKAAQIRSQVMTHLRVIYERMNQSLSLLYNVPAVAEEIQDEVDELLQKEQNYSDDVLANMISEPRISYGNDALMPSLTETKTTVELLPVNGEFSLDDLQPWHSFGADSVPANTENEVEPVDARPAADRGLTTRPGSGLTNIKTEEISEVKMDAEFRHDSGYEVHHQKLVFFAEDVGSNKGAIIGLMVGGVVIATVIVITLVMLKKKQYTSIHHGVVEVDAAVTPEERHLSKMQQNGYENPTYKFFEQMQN
UniProt P56817, residues 46-501: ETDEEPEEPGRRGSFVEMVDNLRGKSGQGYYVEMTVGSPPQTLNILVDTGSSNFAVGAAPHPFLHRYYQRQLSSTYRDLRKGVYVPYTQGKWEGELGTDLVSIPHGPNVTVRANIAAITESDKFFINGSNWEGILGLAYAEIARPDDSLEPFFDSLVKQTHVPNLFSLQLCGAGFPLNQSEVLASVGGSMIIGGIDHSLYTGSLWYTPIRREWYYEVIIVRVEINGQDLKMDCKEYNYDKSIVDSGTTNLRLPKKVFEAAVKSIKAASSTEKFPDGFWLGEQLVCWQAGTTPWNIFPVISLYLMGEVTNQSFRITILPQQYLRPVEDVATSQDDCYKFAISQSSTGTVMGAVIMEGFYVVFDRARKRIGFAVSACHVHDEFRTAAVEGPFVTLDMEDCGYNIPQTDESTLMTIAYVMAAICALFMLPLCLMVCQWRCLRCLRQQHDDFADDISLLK

Results are given in words; binding and its absence hold for the method and conditions named. In cells and extracts the contact can be indirect. Some entries that bind do so weakly or less than the wild type.

The target in experiment [1] is His-tagged USP25a catalytic domain (human) (UniProt Q9UHP3). As to the kind of experiment: co-IP; purified His-USP25a^Cat with BACE1-HA exogenously expressed in HEK293T cells; mouse IgG as negative control; only the target purified.
In experiment [2] the target is APP (construct of the co-IPs of Supplemental Figure 4, A and B, not shown) (UniProt P05067). As to the kind of experiment: co-IP; Supplemental Figure 4, A and B; format not shown.

As for “BACE1-HA (from UniProt P56817 46-501) (enzyme)”, the binding result in experiment [1] is “binds”.
Regarding “USP25 (construct of the co-IPs of Supplemental Figure 4, A-C, not shown) (from UniProt Q9UHP3 1-1055) (enzyme)”, the binding result in experiment [2] is “binds”.
